From ChEMBL document CHEMBL1134401, “Property-based design: optimization of drug absorption and pharmacokinetics” (J Med Chem, 2001) come the findings set out here.

Each structure is given as a SMILES string.

This series in a line: Partition coefficient (logD). The settings on record: octanol/water.

With `COC(=O)C1=C(C)NC(C)=C(C(=O)OC)C1c1ccccc1[N+](=O)[O-]` [NIFEDIPINE], the logD came to 3.2.
